Source: the supplement of paper PMC3334620
In all, about 33,000 sequences were measured (“E-score (-0.5 to 0.5)”: median about -0.0034, highest 2% from about 0.25 on). This is one part of the list.

Biological target: T1, Yap3 (UniProt P38749)
T1 sequence: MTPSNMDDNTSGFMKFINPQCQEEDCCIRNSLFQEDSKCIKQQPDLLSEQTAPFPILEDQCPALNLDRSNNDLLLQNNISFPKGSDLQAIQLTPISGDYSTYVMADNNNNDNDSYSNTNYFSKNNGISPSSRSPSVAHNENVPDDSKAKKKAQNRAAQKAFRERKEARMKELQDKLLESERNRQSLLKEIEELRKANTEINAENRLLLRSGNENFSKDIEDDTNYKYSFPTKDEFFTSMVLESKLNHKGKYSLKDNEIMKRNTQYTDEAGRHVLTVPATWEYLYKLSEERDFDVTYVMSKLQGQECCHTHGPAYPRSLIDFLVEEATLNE
Test: PBM E-score (8-mer binding enrichment) (E-score (-0.5 to 0.5)); higher = stronger / more preferred TF binding
Conditions: protein concentration: 100 nM; construct: GST-full length
Summary of the method: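 Each ungapped eight-base word and its reverse complement, pooled, received an E-score from the Universal PBM Analysis Suite. Underlying scans, normalised with masliner, recorded fluorescent anti-GST bound to GST-tagged yeast transcription factors. These were applied at about 100-200 nM to universal all-10-mer Agilent arrays double-stranded by primer extension.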

| Sequence | PBM E-score |
| --- | --- |
| CCGCTGCC | -0.0814 |
| AGCTAAAG | 0.0356 |
| GGCTGCGA | -0.0841 |
| CACCGTGG | -0.307 |
| CAGTCCGC | -0.102 |
| AAACTATA | 0.19 |
| AAACCTTA | 0.0835 |
| ACTACGTG | -0.166 |
| CATCAAAG | -0.0478 |
| GAGATCTC | 0.111 |
| AGCAAATG | 0.0505 |
| TAGAGACA | -0.097 |
| GGCATTAC | 0.178 |
| ATCCTGTA | 0.102 |
| ATACTAAA | 0.188 |
| AGCCAAAC | 0.046 |
| CGAATCTC | -0.0851 |
| CGCGTCAA | 0.135 |
| ATCGTGAG | -0.114 |
| GGCTTTAA | -0.0077 |
| CTGCGTCC | -0.231 |
| CAATCGGG | -0.05 |
| AAAAGTGA | 0.132 |
| GGAACGGA | 0.0495 |
| GAGTCATA | 0.0239 |

Reprinted at random: two records from the list

| Sequence | PBM E-score |
| --- | --- |
| GGCTGCGA | -0.0841 |
| CACCGTGG | -0.307 |

More records follow.

| Sequence | PBM E-score |
| --- | --- |
| ATATTTAC | 0.208 |
| ATGGTGGC | -0.204 |
| CTACAGAG | -0.124 |
| GGAATATA | 0.219 |
| GCACGCAA | -0.151 |
| CGCCTAGC | -0.187 |
| CGCCTACA | 0.0235 |
| AGTAACAA | 0.129 |
| AGATGAGC | 0.0668 |
| TATGTAGA | 0.0392 |
| CATGCAAG | -0.0305 |
| CCGAGCTA | -0.16 |
| CACGAGGA | -0.0608 |
| TCAATCAA | 0.122 |
| AGTTCACA | -0.0341 |
| AGGTTAGA | -0.172 |
| CGCCAGGC | -0.209 |
| AGTACTCG | 0.194 |
| ACTCCGCT | -0.14 |
| CTTTTCCA | -0.067 |
| CTCAGGCC | -0.273 |
| CGTGCCTA | -0.14 |
| ACCGCAAC | 0.093 |
| CGTATATC | 0.00115 |
| ATCCCCCC | -0.372 |

| Sequence | PBM E-score |
| --- | --- |
| AAACGGCT | -0.0738 |
| AAGTGAAG | 0.0289 |
| ACTATCAT | 0.207 |
| ATGGAGTG | -0.0686 |
| ACAGTCCC | -0.269 |
| TAGGGGAA | -0.0007 |
| GCCATTAA | 0.0111 |
| GCATGCAC | -0.0435 |
| CCGAATCA | -0.0896 |
| CACATCAA | 0.0645 |
| TACGTGCA | 0.0517 |
| AGCTCTAG | -0.0862 |
| GAATCAAC | 0.142 |
| CATGGGTC | -0.137 |
| GGGTCGTA | -0.162 |
| GACACGAA | 0.0437 |
| GCGTTATA | 0.112 |
| GACTCCCA | -0.193 |
| ACCCCATA | -0.177 |
| CCTTGAAG | -0.165 |
| AGAAGGAT | -0.166 |
| AGGGCGTC | -0.169 |
| CTTCGTGC | -0.019 |
| ATGGGCCC | -0.292 |
| CAACGGAC | -0.0672 |

A section taken from the entries so far, for reference:

| Sequence | PBM E-score |
| --- | --- |
| ATGGTGGC | -0.204 |
| CTACAGAG | -0.124 |
| GGAATATA | 0.219 |
| GCACGCAA | -0.151 |

(next part)

| Sequence | PBM E-score |
| --- | --- |
| AATAAGAA | 0.269 |
| AGACTTCA | -0.241 |
| GTCCTCTA | -0.147 |
| AAAGAATA | 0.224 |
| TCCCGACA | 0.0209 |
| CTCAATCC | 0.00177 |
| GGCGACTA | -0.0103 |
| TAGCCTCA | -0.024 |
| ACGCCAGC | -0.175 |
| CGCCGCAG | -0.139 |
| CGCTTGCA | -0.0205 |
| ATTTTACA | 0.145 |
| CTCCCCTA | -0.233 |
| ACGACAAA | 0.166 |
| ACGTAGCG | -0.0713 |
| CTTCAGCC | -0.134 |
| AAAACACC | 0.0622 |
| AGTCGATC | -0.0827 |
| TCCTAACA | 0.128 |
| TACCACAA | 0.123 |
| AGCAGGCA | -0.18 |
| CCATTAGC | -0.0279 |
| CGATTCAG | -0.0182 |
| GCTGTCTA | -0.117 |
| AATTGGTA | 0.158 |

| Sequence | PBM E-score |
| --- | --- |
| CGAGTTAA | 0.132 |
| CGGGCCTC | -0.0723 |
| CACTGAAG | -0.0613 |
| AAGAGTCT | -0.0997 |
| CAAGGTCG | -0.0141 |
| GGCGTATA | -0.0969 |
| ATGCTAGA | -0.0113 |
| ACCGAACC | -0.188 |
| AAGTTATA | 0.175 |
| GCTAGCGA | 0.0245 |
| ACGGAGAC | 0.0369 |
| GATTAACA | 0.232 |
| ACAAAGCG | 0.162 |
| ATGGATGG | -0.0764 |
| CGGCTCGA | -0.124 |
| TCTAGTAA | 0.0732 |
| CATCCTGG | 0.0541 |
| ATTACCGG | -0.0144 |
| CGTAGGAA | 0.00989 |
| ACAGCCGT | -0.0768 |
| TCATTAGA | 0.0685 |
| AGACCTGG | -0.0312 |
| ATTACTAC | 0.0177 |
| TCGCGCCA | -0.0451 |
| ATTAGCAG | 0.112 |

| Sequence | PBM E-score |
| --- | --- |
| CCATTGGC | -0.163 |
| AGTTTCGA | -0.0266 |
| GGTATTTA | 0.104 |
| AAAAGAAG | 0.0691 |
| GAACTTGA | 0.0484 |
| ACGGACCG | -0.298 |
| ATGCTTTC | 0.17 |
| CCGGAGAG | -0.292 |
| CTAACCGC | -0.128 |
| AGGTGGTG | -0.105 |
| CTATAGAA | -0.00393 |
| GATGATCC | -0.0664 |
| ACTCGGGC | -0.115 |
| ATGATGTA | 0.211 |
| AGCACATA | 0.0101 |
| ATTTCCCC | 0.106 |
| GATGCACA | -0.173 |
| GTTGTCGA | -0.0764 |
| ACTAACCG | 0.055 |
| ATAAGAAA | 0.207 |
| ACCCGAGT | -0.0562 |
| AACTTTCC | 0.00171 |
| TACCTACA | 0.0898 |
| AACGAGAA | 0.183 |
| AACGAAAA | 0.181 |

| Sequence | PBM E-score |
| --- | --- |
| CTTACGTA | 0.349 |
| CTAACTCC | -0.17 |
| TTATCGAA | 0.109 |
| ATCGTAGA | -0.117 |
| TAGTCGGA | 0.00489 |
| ACGCCAAG | -0.351 |
| CCGGGCTC | -0.256 |
| AGGGTCGC | -0.186 |
| GAACGAGC | 0.0184 |
| AATAAGCA | 0.148 |
| AAGAAGCG | -0.127 |
| CGATTCAC | -0.025 |
| ATACGCAA | 0.153 |
| ACTGGGGA | -0.344 |
| AACTGGAC | 0.0415 |
| AGTCTTGA | -0.142 |
| AATTATCA | 0.288 |
| AGGACACG | -0.0469 |
| ACCGCCTG | -0.21 |
| ATCTACCA | 0.196 |
| GAGGACTA | -0.0501 |
| GAGTGACA | 0.0844 |
| CTAACGTC | 0.0547 |
| CGCTGGAG | -0.1 |
| CACGAACG | -0.0181 |

| Sequence | PBM E-score |
| --- | --- |
| ATGCCTAA | 0.00148 |
| GCGGGAAC | -0.0424 |
| AACCTCCA | -0.257 |
| GACTGCGA | -0.176 |
| CCCACCAC | -0.091 |
| GATGGTGA | -0.0452 |
| ATTGCAAC | 0.107 |
| CCAACGCC | -0.104 |
| AAACCGGG | -0.0388 |
| TAGATAGA | 0.143 |
| TCATTCGA | 0.195 |
| CAAGCTGG | -0.192 |
| AGAAAGAA | 0.0357 |
| AGGTGCGA | -0.233 |
| GCTGCTGA | -0.00022 |
| AACCCCCG | -0.416 |
| AACCCCAG | -0.164 |
| AACTGCGA | -0.0434 |
| ATTTTTCC | 0.0331 |
| CTGGAAGA | 0.0574 |
| GCAGCGTA | -0.113 |
| AAAGGCCT | -0.143 |
| AAAGAACC | 0.0747 |
| GCTCTCCA | -0.215 |
| CTGACCGA | -0.0675 |

| Sequence | PBM E-score |
| --- | --- |
| AACTTTCA | 0.0342 |
| AGATCGGC | -0.0596 |
| AGGGATAG | -0.0948 |
| CTAGTTCA | 0.1 |
| ATTTAGAC | 0.106 |
| GCGCGTAA | 0.23 |
| TACTGATA | 0.0914 |
| AGTCACAC | 0.0306 |
| CTTTTTGC | 0.038 |
| AGATGTAG | -0.0953 |
| TAGCTGAA | 0.0584 |
| AGCTTAAG | 0.0852 |
| CTTTGCTC | -0.0473 |
| AAAGAGCC | -0.115 |
| ATGGCCTG | -0.0904 |
| GTCTGCAC | -0.064 |
| CGATCAAC | -0.14 |
| GCTATATA | 0.101 |
| ACGGTCCA | -0.143 |

Copied from the list:
In PBM E-score, GCTATATA has 0.101
In PBM E-score, ATGGCCTG has -0.0904
In PBM E-score, TAGCTGAA has 0.0584
